Where “and” joins values, the source holds several entries; their conditions need not be identical. Equal values may be shown once. Where a name gives a salt, the structure may show the parent alone. The list shows a part of the results. Most values lie at the level of the controls, where differences are scatter. Where a SMILES comes first, the peptide text is derived from it. Bridges are numbered along the chain shown (N, C = ends). [ ]: non-standard residue; d: D form. The star is where a group is joined. Ileψ(thiazoline)Cys = CC[C@H](C)[C@H](N)C1=N[C@H](C(=O)*)CS1; dOrn = NCCC[C@@H](N)C(=O)O
How the values were obtained:
Conditions in all cases: 5 µM; treatment: days 7-14 after plating, readout day 21
[1] = system: hPSC-derived cortical neurons (WA09); assay: nucleus area z-score vs screen plate; higher = larger nuclei (more mature)
[2] = system: hPSC-derived cortical neurons (WA09); assay: total neurite length per nucleus (MAP2) z-score; higher = more neurite growth
[3] = system: hPSC-derived cortical neurons (WA09); assay: nucleus roundness z-score vs screen plate; higher = rounder nuclei (more mature)
[4] = system: hPSC-derived cortical neurons (WA09); assay: KCl-induced FOS+/EGR-1+ double-positive nuclei fraction z-score (KCl minus unstimulated); higher = stronger activity-induced IEG response

SMILES | nucleus area z-score [1] | total neurite length per nucleus (z-score) [2] | nucleus roundness z-score [3] | KCl-induced FOS+/EGR-1+ double-positive nuclei fraction z-score [4]
N#C/C(=C1/SC[C@@H](c2ccc(Cl)cc2Cl)S1)n1ccnc1 [Luliconazole] | -0.0809 | 0.0875 | 0.728 | -0.379
CCCNC(C)C(=O)Nc1ccccc1C (stereo not given) [Prilocaine] | 0.137 | 0.598 | -0.327 | 1.6
N#Cc1ccc(C(c2ccc(C#N)cc2)n2cncn2)cc1 [Letrozole] | 0.407 | 0.386 | 1.45 | -0.099
Cn1c2ccccc2c2c3c(c4c5ccccc5n(CCC#N)c4c21)CNC3=O | -0.127 | 0.734 | 0.994 | -0.819
O=C(CSc1nc2c(c(=O)n1-c1ccccc1)SCC2)Nc1ccc(-c2ccccc2)cn1 | 2.45 | 0.822 | 0.239 | 0.267
COc1cccc2c1C(=O)c1c(O)c3c(c(O)c1C2=O)C[C@@](O)(C(C)=O)C[C@@H]3O[C@H]1C[C@H](N)[C@H](O)[C@H](C)O1 [Daunorubicin HCl] | -9.83 | -4.93 | 1.2 | -1.33
CN1CCC(=C2c3ccccc3CCc3sccc32)CC1 [Pizotifen Malate] | -0.222 | 0.0183 | -0.354 | -1.05
Cc1cnc(-c2cnc(NCCNc3ccc(C#N)cn3)nc2-c2ccc(Cl)cc2Cl)[nH]1 |  | -3.41 and -3.13 | -3.75 and -3.32 | -1.05 and -1.57
COC(=O)[C@@H]1CC2=CC(=O)CC[C@]2(C)[C@@]23O[C@@H]2C[C@@]2(C)[C@@H](CC[C@@]24CCC(=O)O4)[C@H]13 [Eplerenone] | -0.213 | 0.407 | -0.0966 | -0.475
COc1cc(Cc2cnc(N)nc2N)cc(OC)c1OC [Trimethoprim] | 0.081 | 0.115 | 0.29 | -0.124
CC(C)(OCc1nn(Cc2ccccc2)c2ccccc12)C(=O)O [Bindarit] | 0.133 | -0.666 | -0.537 | 0.47
CNc1ncnc2c1ncn2[C@@H]1O[C@H](CO)[C@@H](O)[C@H]1O [N6-methyladenosine (m6A)] | 0.231 | 1.44 | 1.3 | 0.439
Nc1ncn([C@H]2C[C@H](O)[C@@H](CO)O2)c(=O)n1 [Decitabine] | -0.00135 | 0.395 | 0.933 | 0.314
OCCOCCN1CCN(C2=Nc3ccccc3Sc3ccccc32)CC1 [Quetiapine Fumarate] | -1.07 | -0.654 | 0.833 | 1.59
CNCC[C@H](Oc1cccc2ccccc12)c1cccs1 [Duloxetine HCl] | -1.69 | -0.675 | -0.379 | -0.67
COC[C@H](NC(=O)c1cnc(C)s1)C(=O)N[C@@H](COC)C(=O)N[C@@H](Cc1ccccc1)C(=O)[C@@]1(C)CO1 [Oprozomib (ONX 0912)] | -15.8 | -3.9 | -4.24 | -0.81
CCN(CC)CCOCCOC(=O)C(CC)(CC)c1ccccc1 [Oxeladin Citrate] | -1.75 | -1.35 | -0.0978 | -0.498
COC1=C(OC)C(=O)C(CCCCCCCCCCO)=C(C)C1=O [Idebenone] | 1.46 | 0.387 | 0.725 | 1.47
O=C(c1ccc(OCCCc2c[nH]cn2)cc1)C1CC1 [Ciproxifan] | 2.8 | -1.64 | -0.402 | -0.167
CCC(C)(Oc1ccc(C2(c3ccc(OC(C)(CC)C(=O)O)cc3)CCCCC2)cc1)C(=O)O (stereo not given) [Clinofibrate] | 0.201 | 0.888 | 1.12 | 0.37
NS(=O)(=O)c1cc2c(cc1Cl)NC(C(Cl)Cl)NS2(=O)=O (stereo not given) [Trichlormethiazide] | -0.42 | -0.213 | -0.272 | -1.38
CN(CCOc1ccc(NS(C)(=O)=O)cc1)CCc1ccc(NS(C)(=O)=O)cc1 [Dofetilide] | 1.13 | -0.239 | 0.152 | 0.232
O=C(O)CCC(=O)Nc1ccc(Br)cn1 [Bikinin] | 0.797 | 0.144 | 0.065 | 1.26
CCC(=O)O[C@]1(C(=O)SCF)[C@H](C)C[C@H]2[C@@H]3C[C@H](F)C4=CC(=O)C=C[C@]4(C)[C@@]3(F)[C@@H](O)C[C@@]21C [Fluticasone propionate] | -0.274 | 2.38 | 1.54 | 0.804
COc1cc(Nc2nc3ccccc3nc2NS(=O)(=O)c2ccc(NC(=O)c3ccc(C)c(OC)c3)cc2)cc(OC)c1 | 0.585 | 1.46 | 0.351 | -0.385
C[C@]12CC[C@@H]3c4ccc(O)cc4C[C@@H](CCCCCCCCC[S+]([O-])CCCC(F)(F)C(F)(F)F)[C@H]3[C@@H]1CC[C@@H]2O (stereo not given in full) [Fulvestrant] | 1.83 | 0.433 | 0.463 | 0.434
O=C1c2ccc(Nc3ccc(F)cc3F)cc2CCc2ccc(OC[C@H](O)CO)cc21 [Skepinone-L] | 0.777 | -0.179 | 0.656 | -0.107

A draw from above in order of molecular weight, descending.
SMILES | nucleus area z-score [1] | total neurite length per nucleus (z-score) [2] | nucleus roundness z-score [3] | KCl-induced FOS+/EGR-1+ double-positive nuclei fraction z-score [4]
COC1=C(OC)C(=O)C(CCCCCCCCCCO)=C(C)C1=O [Idebenone] | 1.46 | 0.387 | 0.725 | 1.47
CNc1ncnc2c1ncn2[C@@H]1O[C@H](CO)[C@@H](O)[C@H]1O [N6-methyladenosine (m6A)] | 0.231 | 1.44 | 1.3 | 0.439
O=C(c1ccc(OCCCc2c[nH]cn2)cc1)C1CC1 [Ciproxifan] | 2.8 | -1.64 | -0.402 | -0.167

(next part)

SMILES | nucleus area z-score [1] | total neurite length per nucleus (z-score) [2] | nucleus roundness z-score [3] | KCl-induced FOS+/EGR-1+ double-positive nuclei fraction z-score [4]
O=C(/C=C/c1ccccc1)NC(NC(=S)Nc1cccc2cccnc12)C(Cl)(Cl)Cl (stereo not given) [Salubrinal] | 0.444 | -0.119 | -0.218 | 0.62
CS(=O)(=O)c1ccc(-c2nnc(/C=C/c3nnc(-c4ccc(C#N)cc4)o3)n2-c2ccccc2Cl)nc1 | 0.867 | -0.622 | 0.492 | -0.199
Cc1c[nH]c2nc(Nc3ccc(N4CCN(C)CC4)c(F)c3)nc(-c3cccc(CC#N)c3)c12 | -16.3 | -6.51 | -4.22 | -1.49
O=C1NCCc2[nH]c(-c3ccncc3)cc21 | -2.43 | -0.206 | -0.453 | -0.206
CN(C)[C@@H]1C(O)=C(C(N)=O)C(=O)[C@@]2(O)C(O)=C3C(=O)c4c(O)ccc(Cl)c4[C@@](C)(O)[C@H]3C[C@@H]12 [Chlortetracycline HCl] | -0.212 | 1.19 | -0.0448 | 0.532
O=C(/C=C/c1ccc(O)c(O)c1)O[C@@H]1C[C@](O)(C(=O)O)C[C@@H](O)[C@H]1O [Chlorogenic Acid] | -0.0923 | -0.0204 | 0.193 | 0.584
CC(=O)N1CCN(CCOc2ccc(C3CCN(C4=Nn5c(nnc5C(F)(F)F)CC4)CC3)cc2)CC1 | -0.683 | -0.699 | -0.338 | 1.51
O=C(C1CCCCC1)N1CC(=O)N2CCc3ccccc3C2C1 (stereo not given) [Praziquantel] | -0.491 | 1.11 | 0.434 | 1.39
O=C(c1ccccc1)c1ccc2nc(NC(=O)c3csc(C4CCN(c5ncnc6ccsc56)CC4)n3)[nH]c2c1 | -0.375 | 0.887 | -0.964 | 0.436
Cc1ccc(S(=O)(=O)/C=C/C#N)cc1 | -9.82 | -0.999 | -2.85 | 0.0817
CN(C)C(=O)c1cc2cnc(Nc3ccc(N4CCNCC4)cn3)nc2n1C1CCCC1 | 0.482 | 0.752 | 0.644 | -0.355
CCCCCOC(=O)Nc1nc(=O)n([C@@H]2O[C@H](C)[C@@H](O)[C@H]2O)cc1F [Capecitabine] | 1.02 | 0.0162 | 0.469 | 1.39
C#Cc1cccc(Nc2ncnc3cc(OCCOC)c(OCCOC)cc23)c1 [Erlotinib HCl (OSI-744)] | 1 | 1.17 | -0.248 | 1.22
C=CC(=O)Nc1cccc(Sc2nc(Nc3ccc(N4CCN(C)CC4)cc3)ncc2Cl)c1 | -5.02 | -0.526 | -1.3 | 0.0352
CCOc1ccc(Cc2cc([C@@H]3O[C@H](CO)[C@@H](O)[C@H](O)[C@H]3O)ccc2Cl)cc1 [Dapagliflozin] | -0.242 | 2.03 | 1.04 | 1.75
NC(CO)C(=O)NNCc1ccc(O)c(O)c1O (stereo not given) [Benserazide HCl] | -0.554 | 0.599 | 0.98 | 1.01
CC[C@H](C)[C@H](N)C1=N[C@H](C(=O)N[C@@H](CC(C)C)C(=O)N[C@H](CCC(=O)O)C(=O)N[C@H](C(=O)N[C@H]2CCCCNC(=O)[C@H](CC(N)=O)NC(=O)[C@@H](CC(=O)O)NC(=O)[C@H](Cc3cnc[nH]3)NC(=O)[C@@H](Cc3ccccc3)NC(=O)[C@H]([C@@H](C)CC)NC(=O)[C@@H](CCCN)NC2=O)[C@@H](C)CC)CS1 [Bacitracin] ({Ileψ(thiazoline)Cys}-L[dE]IK[dOrn]I[dF]H[dD]N; lactam 4-C) | 0.169 | -0.0117 | -0.499 | 0.0366
O=c1c2ccccc2oc2ccccc12 [Xanthone] | 0.328 | -0.162 | -0.178 | 0.158
C[C@@H](Oc1ccc2[nH]nc(/C=C/c3cnn(CCO)c3)c2c1)c1c(Cl)cncc1Cl | 0.402 | 1.21 | -0.261 | -0.289
N#C[C@@H]1CCCN1C(=O)CNC12CC3CC(CC(O)(C3)C1)C2 [Vildagliptin (LAF-237)] | -0.197 | -0.808 | -0.306 | 0.529
Cn1cc(C2=C(c3cn(CCCSC(=N)N)c4ccccc34)C(=O)NC2=O)c2ccccc21 [Ro 31-8220 Mesylate] | -15.1 | -6 | -9.36 | 3.46
O=c1[nH]c(=O)n([C@H]2C[C@H](O)[C@@H](CO)O2)cc1C(F)(F)F [Trifluridine] | 0.0359 | 0.485 | 0.23 | -0.712
COc1ccc(S(=O)(=O)N(C(C)=O)c2ccccc2/C=C/c2cc[n+]([O-])cc2)cc1 | -5.06 | -2.5 | 1.01 | -1.4
CCCC(=O)O[C@]1(C(=O)COC(C)=O)CC[C@H]2[C@@H]3C[C@H](F)C4=CC(=O)C=C[C@]4(C)[C@@]3(F)[C@@H](O)C[C@@]21C [Difluprednate] | 0.572 | 0.755 | -0.378 | 0.0735
O=C1NC(=O)/C(=C/c2ccc3c(c2)OC(F)(F)O3)S1 | 0.0688 | 1.27 | 0.523 | 0.207
CC[C@H](NC(=O)[C@H](C)NC)C(=O)N1C[C@@H](O)C[C@H]1Cc1c(-c2[nH]c3cc(F)ccc3c2C[C@@H]2C[C@H](O)CN2C(=O)[C@H](CC)NC(=O)[C@H](C)NC)[nH]c2cc(F)ccc12 [Birinapant] | -0.394 | 0.772 | -0.371 | 0.777
O=C(COc1ccc(Cl)cc1)NC1CCC(NC(=O)COc2ccc(Cl)cc2)CC1 (stereo not drawn) [ISRIB (trans-isomer)] | -0.0627 | 0.273 | 0.301 | 1.84

Source: the supplement of paper PMC11348887
